# Experimental data from the supplement of paper PMC8728848.
# The other results are listed elsewhere or left out.
# Columns and labels:
# Experiment in all cases: glycan array binding signal (z-score within array); higher = stronger binding
# Conditions in all cases: glycan notation: IUPAC condensed, linker removed
# [1] = biological target: Neu5Ac(a2-3)Gal(b1-3)[Fuc(a1-4)]GlcNAc
# Method in brief: (§1)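 The binding signal is a Z-score computed within each array and averaged over linkers. Arrays of the same protein sequence at different concentrations or buffers were also averaged together. Data originate from 3228 arrays in the Consortium for Functional Glycomics database, kept only where the protein sequence was available.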
# [2] = biological target: Neu5Ac(a2-3)Gal(b1-3)[Fuc(a1-4)]GlcNAc(b1-3)Gal(b1-3)[Fuc(a1-4)]GlcNAc
# Method in brief: as §1
# [3] = biological target: Neu5Ac(a2-3)Gal(b1-3)[Fuc(a1-4)]GlcNAc(b1-3)Gal(b1-4)[Fuc(a1-3)]GlcNAc
# Method in brief: as §1
# [4] = biological target: Neu5Ac(a2-3)Gal(b1-3)[GlcNAc(b1-6)]GalNAc
# Method in brief: as §1
# [5] = biological target: Neu5Ac(a2-3)Gal(b1-3)[Neu5Ac(a2-6)]GalNAc
# Method in brief: as §1
# [6] = biological target: Neu5Ac(a2-3)Gal(b1-3)[Neu5Ac(a2-6)]GlcNAc(b1-3)[Fuc(a1-3)[Gal(b1-4)]GlcNAc(b1-6)]Gal(b1-4)Glc
# Method in brief: as §1
# [7] = biological target: Neu5Ac(a2-3)Gal(b1-3)]Neu5Ac(a2-3)Gal(b1-4)]GlcNAc
# Method in brief: as §1
# Neu5Ac(a2-3)Gal(b1-4)Glc = biological target: Neu5Ac(a2-3)Gal(b1-4)Glc
# Method in brief: as §1
# [8] = biological target: Neu5Ac(a2-3)Gal(b1-4)GlcNAc
# Method in brief: as §1
# [9] = biological target: Neu5Ac(a2-3)Gal(b1-4)GlcNAc(b1-2)Man
# Method in brief: as §1
# [10] = biological target: Neu5Ac(a2-3)Gal(b1-4)GlcNAc(b1-2)Man(a1-3)[GlcNAc(b1-4)][Neu5Ac(a2-3)Gal(b1-4)GlcNAc(b1-2)Man(a1-6)]Man(b1-4)GlcNAc(b1-4)GlcNAc
# Method in brief: as §1
# [11] = biological target: Neu5Ac(a2-3)Gal(b1-4)GlcNAc(b1-2)Man(a1-3)[Neu5Ac(a2-3)Gal(b1-4)GlcNAc(b1-2)Man(a1-6)]Man(b1-4)GlcNAc(b1-4)GlcNAc
# Method in brief: as §1
# [12] = biological target: Neu5Ac(a2-3)Gal(b1-4)GlcNAc(b1-2)Man(a1-3)[Neu5Ac(a2-3)Gal(b1-4)GlcNAc(b1-2)Man(a1-6)]Man(b1-4)GlcNAc(b1-4)[Fuc(a1-6)]GlcNAc
# Method in brief: as §1
# [13] = biological target: Neu5Ac(a2-3)Gal(b1-4)GlcNAc(b1-2)Man(a1-3)[Neu5Ac(a2-6)Gal(b1-4)GlcNAc(b1-2)Man(a1-6)]Man(b1-4)GlcNAc(b1-4)GlcNAc
# Method in brief: as §1
# [14] = biological target: Neu5Ac(a2-3)Gal(b1-4)GlcNAc(b1-2)[Neu5Ac(a2-3)Gal(b1-4)GlcNAc(b1-4)]Man(a1-3)[GlcNAc(b1-4)][Neu5Ac(a2-3)Gal(b1-4)GlcNAc(b1-2)[Neu5Ac(a2-3)Gal(b1-4)GlcNAc(b1-6)]Man(a1-6)]Man(b1-4)GlcNAc(b1-4)GlcNAc
# Method in brief: as §1
# [15] = biological target: Neu5Ac(a2-3)Gal(b1-4)GlcNAc(b1-2)[Neu5Ac(a2-3)Gal(b1-4)GlcNAc(b1-4)]Man(a1-3)[GlcNAc(b1-4)][Neu5Ac(a2-3)Gal(b1-4)GlcNAc(b1-4)Man(a1-6)]Man(b1-4)GlcNAc(b1-4)GlcNAc
# Method in brief: as §1
# [16] = biological target: Neu5Ac(a2-3)Gal(b1-4)GlcNAc(b1-2)[Neu5Ac(a2-3)Gal(b1-4)GlcNAc(b1-6)]Man(a1-6)[Neu5Ac(a2-3)Gal(b1-4)GlcNAc(b1-2)Man(a1-3)]Man(b1-4)GlcNAc(b1-4)GlcNAc
# Method in brief: as §1
# [17] = biological target: Neu5Ac(a2-3)Gal(b1-4)GlcNAc(b1-2)[Neu5Ac(a2-3)Gal(b1-4)GlcNAc(b1-6)]Man(a1-6)[Neu5Ac(a2-3)Gal(b1-4)GlcNAc(b1-2)Man(a1-3)][GlcNAc(b1-4)]Man(b1-4)GlcNAc(b1-4)GlcNAc
# Method in brief: as §1
# [18] = biological target: Neu5Ac(a2-3)Gal(b1-4)GlcNAc(b1-3)Gal
# Method in brief: as §1
# [19] = biological target: Neu5Ac(a2-3)Gal(b1-4)GlcNAc(b1-3)Gal(b1-3)GlcNAc
# Method in brief: as §1
# [20] = biological target: Neu5Ac(a2-3)Gal(b1-4)GlcNAc(b1-3)Gal(b1-4)GlcNAc
# Method in brief: as §1
# [21] = biological target: Neu5Ac(a2-3)Gal(b1-4)GlcNAc(b1-3)Gal(b1-4)GlcNAc(b1-2)Man(a1-3)[Neu5Ac(a2-3)Gal(b1-4)GlcNAc(b1-3)Gal(b1-4)GlcNAc(b1-2)Man(a1-6)]Man(b1-4)GlcNAc(b1-4)GlcNAc
# Method in brief: as §1
# [22] = biological target: Neu5Ac(a2-3)Gal(b1-4)GlcNAc(b1-3)Gal(b1-4)GlcNAc(b1-3)Gal(b1-4)GlcNAc
# Method in brief: as §1
# [23] = biological target: Neu5Ac(a2-3)Gal(b1-4)GlcNAc(b1-3)Gal(b1-4)GlcNAc(b1-3)Gal(b1-4)GlcNAc(b1-2)Man(a1-3)[Neu5Ac(a2-3)Gal(b1-4)GlcNAc(b1-3)Gal(b1-4)GlcNAc(b1-3)Gal(b1-4)GlcNAc(b1-2)Man(a1-6)]GalNAc
# Method in brief: as §1
# [24] = biological target: Neu5Ac(a2-3)Gal(b1-4)GlcNAc(b1-3)Gal(b1-4)GlcNAc(b1-3)GalNAc
# Method in brief: as §1
# [25] = biological target: Neu5Ac(a2-3)Gal(b1-4)GlcNAc(b1-3)Gal(b1-4)GlcNAc(b1-3)[Neu5Ac(a2-3)Gal(b1-4)GlcNAc(b1-3)Gal(b1-4)GlcNAc(b1-6)]GalNAc
# Method in brief: as §1
# [26] = biological target: Neu5Ac(a2-3)Gal(b1-4)GlcNAc(b1-3)Gal(b1-4)GlcNAc(b1-6)[Gal(b1-3)]GalNAc
# Method in brief: as §1
# [27] = biological target: Neu5Ac(a2-3)Gal(b1-4)GlcNAc(b1-3)Gal(b1-4)[Fuc(a1-3)]GlcNAc
# Method in brief: as §1
# [28] = biological target: Neu5Ac(a2-3)Gal(b1-4)GlcNAc(b1-3)GalNAc
# Method in brief: as §1
# [29] = biological target: Neu5Ac(a2-3)Gal(b1-4)GlcNAc(b1-3)[Neu5Ac(a2-3)Gal(b1-4)GlcNAc(b1-6)]GalNAc
# Method in brief: as §1
binder,measurement,setting,value
"AntigenI/IIA3VP1 (Streptococcus mutans), C9E3B4 (protein) AANEADYQAKLTAYQTELARVQKANADAKAAYEAAVAANNAANAALTAENTAIKKRNADAKADYEAKLAKYQADLAKYQKDLADYPVKLKAYEDEQASIKAALAELEKHKNEDGNLTEPSAQNLVYDLEPNANLSLTTDGKFLKASAVDDAFSKSTSKAKYDQKILQLDDLDITNLEQSNDVASSMELYGNFGDKAGWSTTVSNNSQVKWGSVLLERGQSATATYTNLQNSYYNGKKISKIVYKYTVDPKSKFQGQKVWLGIFTDPTLGVFASAYTGQVEKNTSIFIKNEFTFYDEDGKPINFDNALLSVASLNREHNSIEMAKDYSGKFVKISGSSIGEKNGMIYATDTLNFKQGEGGSRWTMYKNSQAGSGWDSSDAPNSWYGAGAIKMSGPNNYVTVGATSATNVMPVSDMPVVPGKDNTDGKKPNIWYSLNGKIRAVNVPKVTKEKPTPPVKPTAPTKPTYETEKPLKPAPVAPNYEKEPTPPTRLEHHHHHH",glycan array binding signal (z-score),[1],-0.416
same,glycan array binding signal (z-score),[2],-0.256
same,glycan array binding signal (z-score),[3],-0.387
same,glycan array binding signal (z-score),[4],0.443
same,glycan array binding signal (z-score),[5],-1.06
same,glycan array binding signal (z-score),[6],-0.099
same,glycan array binding signal (z-score),[7],0.016
same,glycan array binding signal (z-score),Neu5Ac(a2-3)Gal(b1-4)Glc,-0.468
same,glycan array binding signal (z-score),[8],0.013
same,glycan array binding signal (z-score),[9],0.921
same,glycan array binding signal (z-score),[10],-0.724
same,glycan array binding signal (z-score),[11],-0.3
same,glycan array binding signal (z-score),[12],-1.08
same,glycan array binding signal (z-score),[13],0.08
same,glycan array binding signal (z-score),[14],0.01
same,glycan array binding signal (z-score),[15],-0.941
same,glycan array binding signal (z-score),[16],0.406
same,glycan array binding signal (z-score),[17],-1.35
same,glycan array binding signal (z-score),[18],-1.18
same,glycan array binding signal (z-score),[19],0.366
same,glycan array binding signal (z-score),[20],-0.616
same,glycan array binding signal (z-score),[21],-0.058
same,glycan array binding signal (z-score),[22],-0.965
same,glycan array binding signal (z-score),[23],1.4
same,glycan array binding signal (z-score),[24],1.42
same,glycan array binding signal (z-score),[25],0.324
same,glycan array binding signal (z-score),[26],-0.29
same,glycan array binding signal (z-score),[27],-0.593
same,glycan array binding signal (z-score),[28],-1.27
same,glycan array binding signal (z-score),[29],0.764

# Looked up one by one from the list above, two records:
binder,measurement,setting,value
"AntigenI/IIA3VP1 (Streptococcus mutans), C9E3B4 (protein) AANEADYQAKLTAYQTELARVQKANADAKAAYEAAVAANNAANAALTAENTAIKKRNADAKADYEAKLAKYQADLAKYQKDLADYPVKLKAYEDEQASIKAALAELEKHKNEDGNLTEPSAQNLVYDLEPNANLSLTTDGKFLKASAVDDAFSKSTSKAKYDQKILQLDDLDITNLEQSNDVASSMELYGNFGDKAGWSTTVSNNSQVKWGSVLLERGQSATATYTNLQNSYYNGKKISKIVYKYTVDPKSKFQGQKVWLGIFTDPTLGVFASAYTGQVEKNTSIFIKNEFTFYDEDGKPINFDNALLSVASLNREHNSIEMAKDYSGKFVKISGSSIGEKNGMIYATDTLNFKQGEGGSRWTMYKNSQAGSGWDSSDAPNSWYGAGAIKMSGPNNYVTVGATSATNVMPVSDMPVVPGKDNTDGKKPNIWYSLNGKIRAVNVPKVTKEKPTPPVKPTAPTKPTYETEKPLKPAPVAPNYEKEPTPPTRLEHHHHHH",glycan array binding signal (z-score),[11],-0.3
same,glycan array binding signal (z-score),[23],1.4
